Data set [1] in a line: Sensory analysis of odor/smell, color and taste of Maillard reaction samples at 22 C (Examples 55-62). The format is in vivo, human. As to the method: The reaction partners were dissolved in water and then warmed glycerin (60° C.) was added. […]
[…] After 20 minutes in the ice bath the sealed vials were put in a water bath set to 22° C.
The odor/smell was assessed independently by 3 persons; the final description was agreed after discussion. […] The taste was assessed independently by 3 persons either in the original samples or after appropriate dilution to achieve relevant concentrations of sugars and steviol-glycosides (i.e. 5-9% SE); the final description was agreed after discussion.

Data set [2] can be described thus: HPLC/DAD/MS detection of MRI (Amadori) products and degradation kinetics of reactants at various pH-conditions. The settings on record: reaction of Phe and Suc, % formation from degraded Phe.
[3] abbreviates: Table 56.1, negative controls (no carbohydrate source), 10 ml glycerin/water=9:1, 100° C., 40 minutes.

Consider `N[C@@H](Cc1ccc(O)cc1)C(=O)O` [18.1 mg Tyr], for which the Color entry in data set [1] (setting [3]) is on record as “No color”.

Take `O=C(O)[C@@H]1CCCN1` [11.5 mg Pro]: in data set [1] (setting [3]), the Color result is given as “Slightly Yellow”.

For the compound `CC[C@H](C)[C@H](N)C(=O)O` [13.11 mg Ile], in data set [1] (setting [3]), the Color entry is recorded as “No color”.

Take `O=C(O)[C@H](Cc1ccccc1)NCC(=O)[C@@H](O)[C@H](O)[C@H](O)CO` [MRI (Phe-Glu)]: the “% formation” value in data set [2] (pH = 5.5) is reported as under 0.10%; in data set [2] (pH = 7.0), 0.54%; in data set [2] (pH = 8.5) it was 0.84%.

As to `N[C@@H](CO)C(=O)O` [10.5 mg Ser], the Color result in data set [1] (setting [3]) is reported as “Slightly Yellow”.

Regarding `C[C@H](N)C(=O)O` [8.91 mg Ala], in data set [1] (setting [3]), the Color entry is recorded as “No color”.

`N[C@@H](CS)C(=O)O` [12.1 mg Cys]: the Color entry in data set [1] (setting [3]) is “Slightly Yellow”.

For `N[C@@H](Cc1ccccc1)C(=O)O` [16.5 mg Phe], the Color result in data set [1] (Example 58, before reaction) is “No color”.
